In article PMC6386878:
These are yes or no findings as the source states them, for the method shown. Binding seen in cells or lysates may run through a third protein. Some entries that bind do so weakly or less than the wild type. Each block holds one substance with its values, some of them ahead of it.

Amino acid sequences for entries named in this document (tags omitted). A change or cut given only in a name is not applied to a line headed by its entry. Residues count along the entry.
UniProt O95831, residues 102-613: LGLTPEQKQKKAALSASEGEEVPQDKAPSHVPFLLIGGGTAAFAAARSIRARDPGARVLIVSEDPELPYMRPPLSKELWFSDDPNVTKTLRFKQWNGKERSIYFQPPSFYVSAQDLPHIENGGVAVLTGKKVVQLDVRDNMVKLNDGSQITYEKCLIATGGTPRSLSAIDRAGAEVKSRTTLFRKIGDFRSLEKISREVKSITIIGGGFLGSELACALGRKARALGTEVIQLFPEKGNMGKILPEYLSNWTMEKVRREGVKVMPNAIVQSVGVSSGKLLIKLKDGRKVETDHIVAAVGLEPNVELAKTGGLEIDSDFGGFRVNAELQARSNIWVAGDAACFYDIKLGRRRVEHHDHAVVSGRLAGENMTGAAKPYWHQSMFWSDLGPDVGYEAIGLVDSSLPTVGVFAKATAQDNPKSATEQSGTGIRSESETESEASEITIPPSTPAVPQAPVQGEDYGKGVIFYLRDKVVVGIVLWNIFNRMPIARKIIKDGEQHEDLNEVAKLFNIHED
UniProt O60260: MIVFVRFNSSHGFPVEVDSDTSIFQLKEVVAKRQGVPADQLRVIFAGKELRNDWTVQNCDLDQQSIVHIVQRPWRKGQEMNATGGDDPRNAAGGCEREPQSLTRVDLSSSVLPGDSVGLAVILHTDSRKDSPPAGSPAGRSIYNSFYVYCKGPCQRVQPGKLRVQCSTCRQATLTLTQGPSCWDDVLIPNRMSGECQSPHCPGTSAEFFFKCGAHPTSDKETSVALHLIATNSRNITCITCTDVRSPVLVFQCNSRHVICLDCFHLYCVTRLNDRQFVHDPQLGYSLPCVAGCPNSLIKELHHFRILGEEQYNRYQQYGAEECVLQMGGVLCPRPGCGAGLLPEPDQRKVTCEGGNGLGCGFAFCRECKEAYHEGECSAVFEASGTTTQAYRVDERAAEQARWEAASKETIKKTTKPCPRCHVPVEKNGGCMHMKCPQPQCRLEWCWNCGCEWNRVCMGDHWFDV
HA-parkin N-terminal domain (aa 1 to 224): residues 1-224 of O60260

How the values were obtained:
[1] = molecular target: apoptosis-inducing factor (AIF), endogenous (human (endogenous in SH-SY5Y and HeLa)) (UniProt O95831); assay: co-IP; mitochondrial fractions of SH-SY5Y cells with moderately overexpressed parkin; untreated, CCCP or STS treated
[2] = molecular target: apoptosis-inducing factor (AIF), endogenous (human (endogenous in SH-SY5Y and HeLa)) (UniProt O95831); assay: co-IP; whole-cell lysates of untreated SH-SY5Y cells with endogenous parkin levels; IP with rabbit anti-AIF antibody overnight at 4 °C, agarose beads, Western blot with anti-parkin; rabbit IgG and parkin knockdown cells as controls
[3] = molecular target: apoptosis-inducing factor (AIF), endogenous (human (endogenous in SH-SY5Y and HeLa)) (UniProt O95831); assay: proximity ligation; in situ PLA (Duolink) in fixed SH-SY5Y cells, endogenous proteins, mouse anti-parkin and rabbit anti-AIF; untreated, CCCP (10 µM, 3 h) or STS (2 µM, 3 h)
[4] = molecular target: HA-parkin, wild type (full-length) (UniProt O60260); assay: co-IP; whole-cell lysates of HeLa cells transfected with HA-parkin (WT, N, C); IP with anti-HA antibody, Western blot for endogenous AIF; densitometry of AIF relative to immunoprecipitated parkin
[5] = molecular target: HA-parkin N-terminal domain (aa 1 to 224) (UniProt O60260); assay: as above

binding [1]: binds
Substance: parkin, stably (moderately) overexpressed in SH-SY5Y cells (from UniProt O60260 1-465)

binding [2]: binds | binding [3]: binds
Substance: parkin (endogenous, SH-SY5Y cells) (from UniProt O60260 1-465)

Substance: apoptosis-inducing factor (AIF), endogenous (from UniProt O95831 102-613)
binding [4]: binds | binding [5]: binds
